For at least one entry, the source does not settle the construct or the ends of the probe. The comparison behind a weaker result is the experiment's own reference, which may not be listed here. Tags and fusion partners may be left off the protein sequences shown.

Consider three sequences from PMC7465815, “The CARF Protein MM_0565 Affects Transcription of the Casposon-Encoded cas1-solo Gene in Methanosarcina mazei Gö1” (Biomolecules, 2020).

In this data set the target is T1, His6-MM_0565 (CARF-wHTH protein) (Methanosarcina mazei Gö1) (UniProt Q8PZC9).
T1 sequence (looked up, limits assumed): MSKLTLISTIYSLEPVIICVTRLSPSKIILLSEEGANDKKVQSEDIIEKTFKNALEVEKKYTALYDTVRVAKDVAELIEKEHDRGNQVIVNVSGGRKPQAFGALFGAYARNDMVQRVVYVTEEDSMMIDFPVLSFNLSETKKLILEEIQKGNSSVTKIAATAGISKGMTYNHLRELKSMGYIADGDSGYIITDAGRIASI
As to the kind of experiment: MST. The settings on record: MST: 25 nM labelled protein in His-tag buffer (250 mM NaH2PO4, 1.5 M NaCl, pH 8) + 1 mg/mL BSA, 0.05% Tween20, DNA from annealing buffer; recombinant protein; protein details: N-terminal His6 (pET28a).
Consider “AGCAAATAGAACCAAACATCAACTAAATCCCTATATCGTAAAACATTTAACCAAACCCTA (double strand) [MM_0565 promoter version 4]”, for which the binding result is listed as “binds more weakly”.

As to “AGCAAATAGAACCAAACATCAAACATTTAACCAAACCCTACAATACATGACATCTAATGT (double strand) [MM_0565 promoter version 2]”, the binding result is “binds more weakly”.

Turning to “AGCAAATAGAACCAAACATCAACTAAATCCCTATATCGTACAATACATGACATCTAATGT (double strand) [MM_0565 promoter version 3]”, the binding result is listed as “binds more weakly”.
